According to US8492378B2, “GSK-3β inhibitor” (Takeda Pharmaceutical Company Limited, priority 2006, dated 2013):
Some of these results come from one statement about several compounds together.

The chains behind the UniProt entries cited, without tags or fusion partners. Where a name states a change or a piece, a line headed by the entry shows the natural chain unless it says otherwise. A line that says so, or that is headed by a name, gives the form on record, which may keep a tag or linker.
UniProt P18266: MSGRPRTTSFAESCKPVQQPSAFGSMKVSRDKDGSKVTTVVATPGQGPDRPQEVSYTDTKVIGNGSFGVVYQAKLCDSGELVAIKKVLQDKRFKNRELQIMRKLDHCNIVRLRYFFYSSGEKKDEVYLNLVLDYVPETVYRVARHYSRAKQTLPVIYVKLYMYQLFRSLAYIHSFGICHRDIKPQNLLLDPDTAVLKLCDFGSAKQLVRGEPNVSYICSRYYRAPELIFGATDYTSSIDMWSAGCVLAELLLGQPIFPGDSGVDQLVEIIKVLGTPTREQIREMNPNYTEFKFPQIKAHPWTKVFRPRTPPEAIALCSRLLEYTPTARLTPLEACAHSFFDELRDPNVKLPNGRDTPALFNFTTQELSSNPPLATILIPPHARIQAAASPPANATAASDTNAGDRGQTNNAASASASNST
UniProt P49841, other isoform, or with tags, fused parts or gaps: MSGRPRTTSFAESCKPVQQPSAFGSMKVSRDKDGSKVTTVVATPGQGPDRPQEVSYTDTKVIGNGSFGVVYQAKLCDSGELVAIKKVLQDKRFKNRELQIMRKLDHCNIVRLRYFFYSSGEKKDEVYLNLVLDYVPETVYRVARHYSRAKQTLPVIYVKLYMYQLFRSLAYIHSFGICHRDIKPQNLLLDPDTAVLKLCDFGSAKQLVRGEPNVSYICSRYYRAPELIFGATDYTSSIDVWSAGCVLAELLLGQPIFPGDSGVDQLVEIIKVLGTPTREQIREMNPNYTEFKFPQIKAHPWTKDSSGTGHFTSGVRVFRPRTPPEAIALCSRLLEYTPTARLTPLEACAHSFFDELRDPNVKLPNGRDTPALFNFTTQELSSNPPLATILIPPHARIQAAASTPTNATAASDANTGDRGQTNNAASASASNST

Key:
GSK-3β [1] = target: T1, GSK-3β (Rattus norvegicus, UniProt P18266); assay: Intracellular GSK-3β inhibitory activity with Tau phosphorylation as index (cerebral cortex-derived neuronal cell); assay type: cell-based, SD rat; conditions: rat cerebral cortex neuronal cells, 2 hr treatment; read-out: IC50 values (Tau phosphorylation AT-8, amended with total Tau)
T1 construct: endogenous in cells; host or cells: primary cerebral cortex neurons from SD rat fetus

GSK-3β [2] = target: GSK-3β (Homo sapiens, UniProt P49841); assay: GSK-3β inhibitory activity evaluation (Kinase Glo luminescence); assay type: biochemical; design: FLAG (N); made in house; host or cells: Sf-21 insect cells, recombinant baculovirus (pFASTBAC1, BAC-TO-BAC); conditions: recombinant human GSK-3β, read-out: IC50 value (GSK-3β inhibition)

| SMILES | IC50 (GSK-3β [1]) | IC50 (GSK-3β [2]) |
| --- | --- | --- |
| COc1ccc(CSc2nnc(-c3ccc4nccn4c3)o2)cc1C(F)(F)F [Example 16, 6-[5-[[4-methoxy-3-(trifluoromethyl)benzyl]thio]-1,3,4-oxadiazol-2-yl]imidazo[1,2-a]pyridine] | ≤ 10000 nM | ≤ 100 nM |
| N#Cc1cccc(CSc2nnc(-c3ccc4ncc(-c5ccccn5)n4c3)o2)c1 [Example 24, 3-[[[5-[3-(2-pyridyl)imidazo[1,2-a]pyridin-6-yl]-1,3,4-oxadiazol-2-yl]thio]methyl]benzonitrile] | ≤ 10000 nM | ≤ 100 nM |
| COc1ccc(-n2cnc3ccc(-c4nnc(SCc5cccc(F)c5)o4)cc32)cc1 [Example 177, 6-[5-[(3-fluorobenzyl)thio]-1,3,4-oxadiazol-2-yl]-1-(4-methoxyphenyl)-1H-benzimidazole] | ≤ 10000 nM | ≤ 100 nM |
| COc1ccc(-n2cnc3ccc(-c4nnc(SCc5cccc(C(F)(F)F)c5)o4)cc32)cc1 [Example 178, 1-(4-methoxyphenyl)-6-[5-[[3-(trifluoromethyl)benzyl]thio]-1,3,4-oxadiazol-2-yl]-1H-benzimidazole] | ≤ 10000 nM | ≤ 100 nM |
| COc1ccc(-n2cnc3ccc(-c4nnc(SCc5cccc(C#N)c5)o4)cc32)cc1 [Example 179, 3-[[[5-[1-(4-methoxyphenyl)-1H-benzimidazol-6-yl]-1,3,4-oxadiazol-2-yl]thio]methyl]benzonitrile] | ≤ 10000 nM | ≤ 100 nM |
| COc1ccc(-n2cnc3ccc(-c4nnc(CCc5cccc(F)c5)o4)cc32)cc1 [Example 181, 6-[5-[2-(3-fluorophenyl)ethyl]-1,3,4-oxadiazol-2-yl]-1-(4-methoxyphenyl)-1H-benzimidazole] | ≤ 10000 nM | ≤ 100 nM |
| COc1ccc(-n2cnc3ccc(-c4nnc(CCc5cccc(C(F)(F)F)c5)o4)cc32)cc1 [Example 184, 1-(4-methoxyphenyl)-6-[5-[2-[3-(trifluoromethyl)phenyl]ethyl]-1,3,4-oxadiazol-2-yl]-1H-benzimidazole] | ≤ 10000 nM | ≤ 100 nM |
| COc1ccc(-n2cnc3ccc(-c4nnc(CCc5cccc(C#N)c5)o4)cc32)cc1 [Example 185, 3-[2-[5-[1-(4-methoxyphenyl)-1H-benzimidazol-6-yl]-1,3,4-oxadiazol-2-yl]ethyl]benzonitrile] | ≤ 10000 nM | ≤ 100 nM |
| COc1ccc(-n2cnc3ccc(-c4nnc(NCc5cccc(F)c5)o4)cc32)cc1 [Example 186, N-(3-fluorobenzyl)-5-[1-(4-methoxyphenyl)-1H-benzimidazol-6-yl]-1,3,4-oxadiazol-2-amine] | ≤ 10000 nM | ≤ 100 nM |
| Cn1cnc2ccc(-c3nnc(SCc4cccc(C(F)(F)F)c4)o3)cc21 [Example 187, 1-methyl-6-[5-[[3-(trifluoromethyl)benzyl]thio]-1,3,4-oxadiazol-2-yl]-1H-benzimidazole] | ≤ 10000 nM | ≤ 100 nM |
| C[S+]([O-])c1ccc(-n2cnc3ccc(-c4nnc(SCc5cccc(F)c5)o4)cc32)cc1 (centres unmarked) [Example 191, 6-[5-[(3-fluorobenzyl)thio]-1,3,4-oxadiazol-2-yl]-1-[4-(methylsulfinyl)phenyl]-1H-benzimidazole] | ≤ 10000 nM | ≤ 100 nM |
| C[S+]([O-])c1ccc(-n2cnc3ccc(-c4nnc(SCc5cccc(C#N)c5)o4)cc32)cc1 (centres unmarked) [Example 192, 3-[[[5-[1-[4-(methylsulfinyl)phenyl]-1H-benzimidazol-6-yl]-1,3,4-oxadiazol-2-yl]thio]methyl]benzonitrile] | ≤ 10000 nM | ≤ 100 nM |
| C[S+]([O-])c1ccc(-n2cnc3ccc(-c4nnc(SCc5cccc(C(F)(F)F)c5)o4)cc32)cc1 (centres unmarked) [Example 193, 1-[4-(methylsulfinyl)phenyl]-6-[5-[[3-(trifluoromethyl)benzyl]thio]-1,3,4-oxadiazol-2-yl]-1H-benzimidazole] | ≤ 10000 nM | ≤ 100 nM |
| O=C(CCc1ccccc1)Nc1cc(-c2nnc(SCc3cccc(F)c3)o2)ccn1 [Example 213, N-[4-[5-[(3-fluorobenzyl)thio]-1,3,4-oxadiazol-2-yl]pyridin-2-yl]-3-phenylpropionamide] | ≤ 10000 nM | ≤ 100 nM |
| C[C@H](O)c1nnc(-c2ccc3occ(-c4cccc(OC(F)(F)F)c4)c3c2)o1 [Example 405, (1S)-1-[5-[3-[3-(trifluoromethoxy)phenyl]-1-benzofuran-5-yl]-1,3,4-oxadiazol-2-yl]ethanol] | – | ≤ 100 nM |
| C[C@@H](O)c1nnc(-c2ccc3occ(-c4cccc(OC(F)(F)F)c4)c3c2)o1 [Example 409, (1R)-1-[5-[3-[3-(trifluoromethoxy)phenyl]-1-benzofuran-5-yl]-1,3,4-oxadiazol-2-yl]ethanol] | – | ≤ 100 nM |
| C[C@H](O)c1nnc(-c2ccc3occ(-c4cc(F)ccc4Cl)c3c2)o1 [Example 410, (1S)-1-[5-[3-(2-chloro-5-fluorophenyl)-1-benzofuran-5-yl]-1,3,4-oxadiazol-2-yl]ethanol] | – | ≤ 100 nM |
| CSc1ccc(-n2cnc3ccc(-c4nnc(N)o4)cc32)cc1 [Example 422, 5-[1-[4-(methylthio)phenyl]-1H-benzimidazol-6-yl]-1,3,4-oxadiazol-2-amine] | – | ≤ 100 nM |

| SMILES | IC50 (GSK-3β [1]) | IC50 (GSK-3β [2]) |
| --- | --- | --- |
| CNc1nnc(-c2ccc3ncn(-c4ccc(SC)cc4)c3c2)o1 [Example 429, N-methyl-5-[1-[4-(methylthio)phenyl]-1H-benzimidazol-6-yl]-1,3,4-oxadiazol-2-amine] | – | ≤ 100 nM |
| CCNc1nnc(-c2ccc3ncn(-c4ccc(SC)cc4)c3c2)o1 [Example 430, N-ethyl-5-[1-[4-(methylthio)phenyl]-1H-benzimidazol-6-yl]-1,3,4-oxadiazol-2-amine] | – | ≤ 100 nM |
| Nc1nnc(-c2ccc3ncn(-c4ccc(OC(F)(F)F)cc4)c3c2)o1 [Example 431, 5-[1-[4-(trifluoromethoxy)phenyl]-1H-benzimidazol-6-yl]-1,3,4-oxadiazol-2-amine] | – | ≤ 100 nM |
| CNc1nnc(-c2ccc3ncn(-c4ccc(OC(F)(F)F)cc4)c3c2)o1 [Example 435, N-methyl-5-[1-[4-(trifluoromethoxy)phenyl]-1H-benzimidazol-6-yl]-1,3,4-oxadiazol-2-amine] | – | ≤ 100 nM |
| Cc1nnc(-c2ccc3ncn(-c4cccc(OC(F)(F)F)c4)c3c2)o1 [Example 436, 6-(5-methyl-1,3,4-oxadiazol-2-yl)-1-[3-(trifluoromethoxy)phenyl]-1H-benzimidazole] | – | ≤ 100 nM |
| CNc1nnc(-c2ccc3ncn(-c4ccc(OC(F)F)cc4)c3c2)o1 [Example 444, 5-[1-[4-(difluoromethoxy)phenyl]-1H-benzimidazol-6-yl]-N-methyl-1,3,4-oxadiazol-2-amine] | – | ≤ 100 nM |
| CSc1nnc(-c2ccc3ncn(-c4cccc(OC(F)(F)F)c4)c3c2)o1 [Example 445, 6-[5-(methylthio)-1,3,4-oxadiazol-2-yl]-1-[3-(trifluoromethoxy)phenyl]-1H-benzimidazole] | – | ≤ 100 nM |
| Cc1nnc(-c2ccc3ncn(-c4ccc(OC(F)(F)F)c(Cl)c4)c3c2)o1 [Example 451, 1-[3-chloro-4-(trifluoromethoxy)phenyl]-6-(5-methyl-1,3,4-oxadiazol-2-yl)-1H-benzimidazole] | – | ≤ 100 nM |
| Nc1nnc(-c2ccc3ncn(-c4ccc(OC(F)(F)F)c(Cl)c4)c3c2)o1 [Example 452, 5-[1-[3-chloro-4-(trifluoromethoxy)phenyl]-1H-benzimidazol-6-yl]-1,3,4-oxadiazol-2-amine] | – | ≤ 100 nM |
| Cc1nnc(-c2ccc3occ(-c4cccc(OC(F)(F)F)c4)c3n2)o1 [Example 476, 5-(5-methyl-1,3,4-oxadiazol-2-yl)-3-[3-(trifluoromethoxy)phenyl]furo[3,2-b]pyridine] | – | ≤ 100 nM |
| Cc1nnc(-c2ccc3occ(-c4cnn(Cc5ccccc5)c4)c3c2)o1 [Example 485, 2-[3-(1-benzyl-1H-pyrazol-4-yl)-1-benzofuran-5-yl]-5-methyl-1,3,4-oxadiazole] | – | ≤ 100 nM |
| Cc1nnc(-c2ccc3occ(-c4cnn(Cc5ccccc5C#N)c4)c3c2)o1 [Example 486, 2-[[4-[5-(5-methyl-1,3,4-oxadiazol-2-yl)-1-benzofuran-3-yl]-1H-pyrazol-1-yl]methyl]benzonitrile] | – | ≤ 100 nM |
| Cc1nnc(-c2ccc3occ(-c4cnn(Cc5ccccc5F)c4)c3c2)o1 [Example 488, 2-[3-[1-(2-fluorobenzyl)-1H-pyrazol-4-yl]-1-benzofuran-5-yl]-5-methyl-1,3,4-oxadiazole] | – | ≤ 100 nM |
| Cc1nnc(-c2ccc3occ(-c4cnn(Cc5cccnc5)c4)c3c2)o1 [Example 490, 3-[[4-[5-(5-methyl-1,3,4-oxadiazol-2-yl)-1-benzofuran-3-yl]-1H-pyrazol-1-yl]methyl]pyridine] | – | ≤ 100 nM |
| CSc1nnc(-c2ccnc(Nc3cccc(C(F)(F)F)c3)c2)o1 [Example 499, 4-[5-(methylthio)-1,3,4-oxadiazol-2-yl]-N-[3-(trifluoromethyl)phenyl]pyridin-2-amine] | – | ≤ 100 nM |
| CS(=O)(=O)c1nnc(-c2ccnc(Nc3cccc(C(F)(F)F)c3)c2)o1 [Example 500, 4-[5-(methylsulfonyl)-1,3,4-oxadiazol-2-yl]-N-[3-(trifluoromethyl)phenyl]pyridin-2-amine] | – | ≤ 100 nM |
| C[S+]([O-])c1nnc(-c2ccnc(Nc3cccc(C(F)(F)F)c3)c2)o1 (centres unmarked) [Example 501, 4-[5-(methylsulfinyl)-1,3,4-oxadiazol-2-yl]-N-[3-(trifluoromethyl)phenyl]pyridin-2-amine] | – | ≤ 100 nM |
| CCN(CC)c1ccc(NC(=O)CSc2nnc(-c3ccc4c(c3)OCO4)o2)cc1 [compound 72, 2-[[5-(1,3-benzodioxol-5-yl)-1,3,4-oxadiazol-2-yl]thio]-N-[4-(diethylamino)phenyl]acetamide, reference compound] | – | ≤ 100 nM |
